Where “and” joins values, the source holds several entries; their conditions need not be identical. Identical values can stand only once. Screen size: about 410,000 compounds; about 18,000 (4.4%) were called active. The inconclusive results got no clear call from the source; some entries with a clear call stand among them for comparison. No stated cut-off is given here; in the data, active means activity change below about -60%; inconclusive means no clear call, values can overlap the other calls; inactive means above about -39%.
Assay: qHTS Assay for inhibitors of the human cytomegalovirus (HCMV)
Conditions: HFF cells, HCMV-luciferase reporter, 72 h; at 57.5 µM; active compounds read low
Summary of the method: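 HFF cells seeded 16 h at 37C, treated with compounds, infected with luciferase-reporter HCMV at MOI 1 PFU/cell; luciferase read at 72 h post infection, normalized to buffer-only and Salinomycin controls.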
With `Cn1c(C(=O)NCCCN2CCN(c3cccc(Cl)c3)CC2)cc2c(=O)n(C)c3ccccc3c21` the activity change, negative = inhibition was active: -68.6%. In the case of `O=C(NC(=S)Nc1ccc(N2CCCCC2)cc1)c1ccc2c(c1)OCCO2`, the activity change, negative = inhibition was inconclusive: -51.6%. With `NC(=S)NN=C1C2CC3CC(C2)CC1C3` the activity change, negative = inhibition was inconclusive: -54%. With `C/C(=N/N1CCN(c2ccccc2)CC1)c1cccc([N+](=O)[O-])c1` the activity change, negative = inhibition was inconclusive: -47.8%. In the case of `S=C(NCc1ccc2c(c1)OCO2)Nc1ccc(-c2nc3ccccc3[nH]2)cc1`, the activity change, negative = inhibition was active: -61.3%. In the case of `Cc1cccc2sc(N(Cc3cccnc3)C(=O)CCS(=O)(=O)c3ccccc3)nc12`, the activity change, negative = inhibition was inconclusive: -46.9%. With `O=C(c1ccco1)N1CCN(S(=O)(=O)c2ccc(Br)s2)CC1` the activity change, negative = inhibition was inconclusive: -50.3%. For `CCN(CC)CC(O)c1cccn1-c1ccc(CNC(=O)NC(C)C)cc1` (configuration not stated), the activity change, negative = inhibition was active: -65.9%. With `CC(C)C[C@H]1CNC(=S)N1C[C@H]1CCCN1C[C@H](Cc1ccc(O)cc1)N1C[C@H](Cc2ccc(O)cc2)N(CCc2ccccc2)C1=S` the activity change, negative = inhibition was inconclusive: -50.2%. For `O=C(CSc1nnc(-c2cc(-c3cccs3)nc3ccccc23)o1)NC1CCCCC1`, the activity change, negative = inhibition was inconclusive: -58.7%. In the case of `Cn1c(SCc2ccccc2)nc(C(F)(F)F)cc1=O`, the activity change, negative = inhibition was inconclusive: -46%. In the case of `CCN(CC)CCCNC(=O)c1c2c(nc3ccccc13)C(=O)N(C1CCCCC1)C2`, the activity change, negative = inhibition was inactive: -2.6%. In the case of `Cc1ccccc1N1C(=O)C2C3C=CC(CC3)C2C1=O` (configuration not stated), the activity change, negative = inhibition was inactive: -11.1%. In the case of `CC1(C(=O)NC2CCCCCC2)CCN1C(=O)Cc1ccc(-c2ccccc2)cc1` (configuration not stated), the activity change, negative = inhibition was inconclusive: -43.6%. For `O=C(Nc1cccn(Cc2c(Cl)cccc2Cl)c1=O)C1CC1`, the activity change, negative = inhibition was inconclusive: -41.3%. With `O=C1COc2ccc(C(=O)/C=C/c3ccccc3)cc2N1` the activity change, negative = inhibition was active: -83.8%. For `CC(C)(C)C1CCc2c(C(=O)NNC(=O)CCC(=O)O)csc2C1` (configuration not stated), the activity change, negative = inhibition was inconclusive: -49.4%. For `CCn1c(=S)sc2c(=O)n(CC(=O)Nc3cccc(Cl)c3)c(C)nc21`, the activity change, negative = inhibition was inactive: -20.1%. In the case of `Cc1ccsc1C(=O)N(C)CC(=O)Nc1ccccc1Br`, the activity change, negative = inhibition was inactive: -22%. In the case of `COc1ccccc1CNC(=O)CCCn1c(=O)c2ccccc2n(CC(=O)Nc2ccc(C)cc2Cl)c1=O`, the activity change, negative = inhibition was inconclusive: -58.7%. With `CCC1=C(OC(=O)N(CC)CC)N2C(=O)OC(=NCC(=O)OC)[C@]2(Cc2ccccc2)[C@H]2C1=CC[C@H]1C(=O)NC(=O)[C@H]12` the activity change, negative = inhibition was inactive: -8.15%. For `Cc1ccc(C(=O)NC2CCCCCC2)cc1S(=O)(=O)N1CCOCC1`, the activity change, negative = inhibition was inactive: 53.3%. With `CC(=O)NS(=O)(=O)c1ccc(NC(=O)/C=C/c2ccccc2)cc1` the activity change, negative = inhibition was inconclusive: -41.4%. In the case of `O=C1c2ccccc2NC(c2ccc(O)cc2)N1/N=C/c1ccc(O)cc1` (configuration not stated), the activity change, negative = inhibition was inactive: 75.8%. For `O=c1c2c(nc3nc(CCc4ccccc4)[nH]n13)CCC2`, the activity change, negative = inhibition was inactive: 19.1%. With `O=C1CCN(Cl)C(=O)N1Cl` the activity change, negative = inhibition was inactive: -5.93%. With `N#Cc1ccc(Oc2cccc3cccnc23)c([N+](=O)[O-])c1` the activity change, negative = inhibition was inconclusive: -47.9%. In the case of `Cc1nc2c(=O)[nH]c3ccccc3c2o1`, the activity change, negative = inhibition was inactive: -3.69%. In the case of `C=CCN(C(=O)CSc1nc2ccsc2c(=O)n1Cc1ccccn1)c1ccccc1`, the activity change, negative = inhibition was inconclusive: -45.9%. For `Cc1c(C)n(CCc2ccccc2)c2ncnc(NCCCN(C)C)c12`, the activity change, negative = inhibition was inconclusive: -46.5%. For `CC1CCN(C(=O)Cc2nn(C)c(=O)c3ccccc23)CC1`, the activity change, negative = inhibition was inconclusive: -47.6%. With `Cc1nc2nc3c(cn2n1)C(=O)CC(c1ccccc1)C3` (configuration not stated) the activity change, negative = inhibition was inconclusive: -51.9%. For `Cc1c(C(=O)N(C)c2ccccc2)oc2c1C(O)CC(C)(C)C2` (configuration not stated), the activity change, negative = inhibition was inconclusive: -47.6%. In the case of `CC1(c2ccccc2Cl)NC(=O)N(CC(=O)N2CCc3ccccc32)C1=O` (configuration not stated), the activity change, negative = inhibition was inconclusive: -45.2%. In the case of `COc1ccc(NC(=O)c2c(N)no[n+]2[O-])c(OC)c1`, the activity change, negative = inhibition was inconclusive: -42%. With `CCOc1cc(/C=N/NC(=O)C(=O)NC2CC2)cc(Br)c1O` the activity change, negative = inhibition was inconclusive: -51.6%. In the case of `CCCN1C2CCCC1CC(NC(=O)c1cc(OC)cc(OC)c1)C2` (configuration not stated), the activity change, negative = inhibition was inactive: 12.1%. For `CN(C(=O)CSc1nc2ccc(NC(=O)COc3ccc(F)cc3)cc2s1)c1ccccc1`, the activity change, negative = inhibition was active: -70.3%. For `O=C(Cc1c(Cl)cccc1Cl)OCc1ccccn1`, the activity change, negative = inhibition was inconclusive: -50.5%. For `Cc1nn(-c2ccccc2)cc1/C=N/NS(=O)(=O)c1ccccc1`, the activity change, negative = inhibition was inactive: 10%. For `COc1cc(/C=C2\SC(=O)N(c3ccccc3Cl)C2=O)cc([N+](=O)[O-])c1O`, the activity change, negative = inhibition was inconclusive: -45.3%. For `COc1ccc([N+](=O)[O-])cc1-n1cccc1`, the activity change, negative = inhibition was inconclusive: -41.1%. With `CC1=C(c2ccc(C)c(C)c2)S(=O)(=O)N=C1N1CCN(c2cccc(C)c2)C(C)C1` (configuration not stated) the activity change, negative = inhibition was inconclusive: -44.9%. In the case of `Cc1ccc(CCC(=O)Nc2ncc(Cc3cccc(Cl)c3Cl)s2)o1`, the activity change, negative = inhibition was active: -63.9%. In the case of `Cc1ccc(NCc2cccn2-c2nnc(N3CCC(C(=O)NCc4ccccc4C)CC3)s2)cc1`, the activity change, negative = inhibition was inconclusive: -58.1%. For `Cc1ccc(-n2ncc(C(=O)NCc3ccc4c(c3)OCO4)c2C2CCN(C(=O)OC(C)(C)C)CC2)cc1C`, the activity change, negative = inhibition was inconclusive: 0%. For `C=CCn1c(=O)c2ccccc2n2c(SCC(=O)O)nnc12`, the activity change, negative = inhibition was inactive: 5.52%. With `O=C(Nc1ccc2ccccc2c1)/C(=C/c1cccc(Br)c1)NC(=O)c1ccco1` the activity change, negative = inhibition was active: -64.4%. In the case of `CN1CCN(S(=O)(=O)c2cccc([N+](=O)[O-])c2)CC1`, the activity change, negative = inhibition was inactive: 55.6%. For `COc1ccc(-c2nn(-c3ccccc3)cc2C(=O)N2CCN(S(=O)(=O)c3ccccc3C#N)CC2)cc1`, the activity change, negative = inhibition was inconclusive: -45.5%. With `CCn1c(SCC(=O)c2ccc(C)cc2)nnc1-c1ccoc1C` the activity change, negative = inhibition was inactive: -30.7%. In the case of `Cc1nn(-c2ccccc2)c2c1CC(=O)Nc1ccccc1-2`, the activity change, negative = inhibition was inconclusive: -57.7%. In the case of `O=C(COc1ccccc1)Nc1c(C(=O)N2CCN(c3ccc(F)cc3)CC2)oc2ccccc12`, the activity change, negative = inhibition was active: -107%. In the case of `COc1cc(/C=C2\SC(=O)N(Cc3ccc(F)cc3)C2=O)cc([N+](=O)[O-])c1O`, the activity change, negative = inhibition was active: -76%. For `Oc1ccc(O)c(Cc2nc3ccccc3s2)c1`, the activity change, negative = inhibition was inconclusive: -58.1%. In the case of `C=C1C(=O)O[C@@H]2[C@H]1CC[C@H](C)[C@]1(O)CCC(=O)[C@@]21C`, the activity change, negative = inhibition was active: -67.5%. In the case of `COC(=O)c1ccc(C2c3c(-c4ccc(Br)cc4)n[nH]c3C(=O)N2c2ccc(Cl)cc2)cc1` (configuration not stated), the activity change, negative = inhibition was active: -103%. For `CC(C)c1ccc(Nc2cc(C(=O)NCCCN(C)Cc3ccccc3)c3ccccc3n2)cc1`, the activity change, negative = inhibition was inactive: 9.06%. For `Cc1ccc(-c2cc(N)n(Cc3ccc(Cl)cc3)n2)cc1`, the activity change, negative = inhibition was inactive: -22%. With `COc1ccc(C2=NN(C(=O)COc3ncnc4ccccc34)C(c3ccco3)C2)cc1` (configuration not stated) the activity change, negative = inhibition was inactive: 49.9%. For `Cc1ccc(NCc2nnc(SCC(=O)c3ccc4c(c3)OCCO4)o2)c(C)c1`, the activity change, negative = inhibition was inconclusive: -59.7%. For `COC(=O)c1sc(NC(=O)c2ccc(Cn3cc(Cl)cn3)o2)c(C#N)c1C`, the activity change, negative = inhibition was active: -106%. For `CCCCOc1ccc(OCCNS(=O)(=O)N(C)C)cc1`, the activity change, negative = inhibition was inconclusive: -47.1%. For `O=C(NN1C(=O)C2C3C=CC(C3)C2C1=O)c1ccccc1` (configuration not stated), the activity change, negative = inhibition was inconclusive: -50.8%. With `COc1ccc(C(=O)NCc2ccc3c(c2)CCN3C(C)=O)cc1OC` the activity change, negative = inhibition was inactive: 45.9%. In the case of `Cc1cccc(CSC(=N)N)c1`, the activity change, negative = inhibition was active: -62.7%. For `O=C(CCNc1cccc(F)c1)c1cccc([N+](=O)[O-])c1`, the activity change, negative = inhibition was inactive: 77%. For `CCn1cc(CNC(=O)c2ccc3nc(Cc4ccccc4F)oc3c2)cn1`, the activity change, negative = inhibition was inactive: -2.94%. With `CC(Oc1ccccc1F)C(=O)Nc1ccc2ccccc2c1` (configuration not stated) the activity change, negative = inhibition was active: -77.4%. In the case of `O=S(=O)(NCc1ccco1)N1CCCCCC1`, the activity change, negative = inhibition was active: -62.3%. In the case of `O=C(Nc1ccc(F)c(Cl)c1)C1Cc2c(-c3ccc4c(c3)OCO4)ccnc2O1` (configuration not stated), the activity change, negative = inhibition was inconclusive: -40.9%. With `COCCN=c1scc(-c2cc(OC)ccc2OC)n1/N=C/c1c[nH]c2ccccc12` the activity change, negative = inhibition was inconclusive: -44.1%. For `COc1cccc(NC(=O)c2ccccc2-c2nc(-c3ccc(F)cc3)no2)c1`, the activity change, negative = inhibition was inconclusive: -47.4%. With `COCC(=O)Nc1nc2n(n1)C(c1ccc(Cl)cc1)CC(c1ccc(OC)cc1)N2` (configuration not stated) the activity change, negative = inhibition was inconclusive: -46.8%. With `COc1cc(OC)c(C(=O)NNC(=S)NC2CCCCC2)cc1OC` the activity change, negative = inhibition was inconclusive: -52.5%. For `O=C(CN1CCN(c2ccc(O)cc2)CC1)Nc1cc(S(=O)(=O)N2CCCC2)ccc1Cl`, the activity change, negative = inhibition was inconclusive: -42.3%. In the case of `Cn1cc(Cc2ccc(C(=O)N3CCOCC3)cn2)c2ccccc21`, the activity change, negative = inhibition was inactive: 3.85%. With `C/C(=N\NC(=O)c1ccccc1O)C1C(=O)c2ccccc2C1=O` the activity change, negative = inhibition was inconclusive: -41%. With `CCc1ccc(-c2cc(C)no2)cc1S(=O)(=O)Nc1ccc(Cl)cn1` the activity change, negative = inhibition was inconclusive: 0%. In the case of `COc1cccc(NC(=O)c2nc(S(C)(=O)=O)ncc2Cl)c1`, the activity change, negative = inhibition was active: -103%. With `Nc1c(C(=O)NCc2ccc3c(c2)OCO3)nnn1CC(=O)Nc1ccc(Br)cc1` the activity change, negative = inhibition was inconclusive: 0%. With `COc1ccc2c(c1)CC/C(=C/c1ccco1)C2=O` the activity change, negative = inhibition was inactive: 32.5%. For `Cc1cccc2c1N(CCOc1ccccc1)C(=O)C2=O`, the activity change, negative = inhibition was inconclusive: -51.4%. For `COc1cccc(NC(=O)CN2C(=O)COc3ccc(S(=O)(=O)N4CCCCCC4)cc32)c1`, the activity change, negative = inhibition was inconclusive: -46.9% and inconclusive: -45.9%. With `CC(C)CN(CCC(=O)O)CC(C)C` the activity change, negative = inhibition was inconclusive: -43.5%. For `COc1ccc(-c2cc3ccccc3oc2=O)cc1NC(=S)NC(=O)c1ccc2c(c1)OCCO2`, the activity change, negative = inhibition was inconclusive: -41.8%. For `CCN(CC)S(=O)(=O)c1cccc(C(=O)Oc2cccc(NC(=O)c3cccs3)c2)c1`, the activity change, negative = inhibition was inconclusive: -40.8%.

Source: PubChem BioAssay AID1259415 (National Center for Advancing Translational Sciences (NCATS), 2018)
On the % scale 0 is the no-effect control and ±100 the full control effect.
